PubChem BioAssay AID1224830, NIAID – 2016
This is one part, drawn at random, of about 18,000 deposited reagents. Over the whole deposit, about 2,900 (16%) got an active call. 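Calls are made per well; low scores hint the gene aids the LPS response, high scores that it dampens it.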 Repeated entries: four replicate wells of each siRNA pool.

Test: 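Genes whose knock-down alters the TNF-alpha reporter response to LPS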 (primary screen)
Cells: human THP-1 monocytic leukaemia cells, TNF dual-luciferase reporter clone, PMA-differentiated to macrophage-like cells
Reagent: siRNA pool against human genes, 50 nM
Timing: LPS for 4 h, given about 3 days after siRNA transfection
Challenge: bacterial LPS (TLR4 ligand), 10 ng/ml
Measured: 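Ratio of firefly to renilla light, scaled to the plate median and expressed as a robust z-score per replicate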
Scale: TNF reporter robust z-score: higher = stronger TNF reporter response to LPS
Call rule: 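a well is active when its z-score exceeds 2.8 or falls below -1.5; control wells carry no call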

| gene | TNF reporter robust z-score | Outcome |
| --- | --- | --- |
| GTF2H2 | -0.04 | inactive |
| GTF2H2 | 0.52 | inactive |
| GTF2H2 | 0.53 | inactive |
| GTF2H2 | 0.43 | inactive |
| FRMPD4 | 1.17 | inactive |
| FRMPD4 | 1.68 | inactive |
| FRMPD4 | 1.05 | inactive |
| FRMPD4 | 0.54 | inactive |
| CTNNA1 | 0.42 | inactive |
| CTNNA1 | 0.74 | inactive |
| CTNNA1 | 1.13 | inactive |
| CTNNA1 | -0.6 | inactive |
| SIRT4 | -1.08 | inactive |
| SIRT4 | -1.13 | inactive |
| SIRT4 | -1.04 | inactive |
| SIRT4 | -0.93 | inactive |
| HSPA1A | 0.22 | inactive |
| HSPA1A | 0.88 | inactive |
| HSPA1A | 1.34 | inactive |
| HSPA1A | -0.27 | inactive |
| NFIA | -1.04 | inactive |
| NFIA | 0.13 | inactive |
| NFIA | 0.48 | inactive |
| NFIA | 0.92 | inactive |
| ACER2 | 0.04 | inactive |
| ACER2 | 0.72 | inactive |
| ACER2 | 0.08 | inactive |
| ACER2 | 0.16 | inactive |
| BABAM2 | -0.63 | inactive |
| BABAM2 | 0.17 | inactive |
| BABAM2 | -0.59 | inactive |
| BABAM2 | -0.07 | inactive |
| PCDHA3 | -1.15 | inactive |
| PCDHA3 | -1.18 | inactive |
| PCDHA3 | -2.23 | active |
| PCDHA3 | -1.87 | active |
| ZNF331 | 1.8 | inactive |
| ZNF331 | -1.2 | inactive |
| ZNF331 | -1.36 | inactive |
| ZNF331 | -1.37 | inactive |
| AMHR2 | -0.93 | inactive |
| AMHR2 | -0.76 | inactive |
| AMHR2 | -0.52 | inactive |
| AMHR2 | -0.06 | inactive |
| TIGD1 | 0.55 | inactive |
| TIGD1 | 3.02 | active |
| TIGD1 | 1.79 | inactive |
| TIGD1 | 2.35 | inactive |
| IL37 | 0.97 | inactive |
| IL37 | 0.05 | inactive |
| IL37 | 1.23 | inactive |
| IL37 | -0.24 | inactive |
| ZNF410 | -1.1 | inactive |
| ZNF410 | -1.03 | inactive |
| ZNF410 | -0.26 | inactive |
| ZNF410 | 0.52 | inactive |
| H2BC7 | -0.08 | inactive |
| H2BC7 | 0.3 | inactive |
| H2BC7 | -0.21 | inactive |
| H2BC7 | 0.18 | inactive |
| MYOZ1 | -0.16 | inactive |
| MYOZ1 | 0.94 | inactive |
| MYOZ1 | -0.35 | inactive |
| MYOZ1 | 1.15 | inactive |
| DNAJB7 | 0.52 | inactive |
| DNAJB7 | 0.76 | inactive |
| DNAJB7 | -0.19 | inactive |
| DNAJB7 | 0.8 | inactive |
| MTCL2 | 0.21 | inactive |
| MTCL2 | 0.33 | inactive |
| MTCL2 | 0.09 | inactive |
| MTCL2 | 0.26 | inactive |
| CERS3 | -0.55 | inactive |
| CERS3 | -0.85 | inactive |
| CERS3 | -0.79 | inactive |
| CERS3 | 0.36 | inactive |
| SELL | 4.06 | active |
| SELL | 3.26 | active |
| SELL | 3.62 | active |
| SELL | 5.89 | active |
| HS3ST4 | 0.52 | inactive |
| HS3ST4 | -1.36 | inactive |
| HS3ST4 | -0.41 | inactive |
| HS3ST4 | -1.08 | inactive |
| MED10 | -1.98 | active |
| MED10 | -1.88 | active |
| MED10 | -1.59 | active |
| MED10 | -1.54 | active |
| RSPH6A | -0.23 | inactive |
| RSPH6A | 0.75 | inactive |
| RSPH6A | -0.18 | inactive |
| RSPH6A | 1.33 | inactive |
| NKX2-2 | -0.47 | inactive |
| NKX2-2 | -0.8 | inactive |
| NKX2-2 | -0.26 | inactive |
| NKX2-2 | -0.4 | inactive |
| SH3GLB1 | -1.48 | inactive |
| SH3GLB1 | -0.64 | inactive |
| SH3GLB1 | -1.05 | inactive |
| SH3GLB1 | -1 | inactive |
| LGALS3 | 0 | inactive |
| LGALS3 | 0.8 | inactive |
| LGALS3 | 0.3 | inactive |
| LGALS3 | 1.18 | inactive |
| RSBN1L | -0.75 | inactive |
| RSBN1L | -0.05 | inactive |
| RSBN1L | -0.08 | inactive |
| RSBN1L | -0.4 | inactive |
| PAG1 | -0.04 | inactive |
| PAG1 | 0.3 | inactive |
| PAG1 | 0.7 | inactive |
| PAG1 | 1.31 | inactive |
